Test results taken from publication PMC6294567, “The C-terminal D/E-rich domain of MBD3 is a putative Z-DNA mimic that competes for Zα DNA-binding activity” (Nucleic Acids Research, 2018).

Tests used:
[1] = biological target: FLAG-MBD3 variant with a truncation of the DE-rich domain (human); test: co-IP; FLAG-MBD3 or truncation mutants expressed in 293F cells, 48 h; lysate (0.3% NP-40, Benzonase) on anti-FLAG M2 affinity gel overnight at 4°C, FLAG peptide elution; blot with anti-ADAR1
[2] = biological target: FLAG-MBD3 variant with a truncation of the MBD domain (human); test: as above

binding [1]: binds
binding [2]: binds
B1: endogenous ADAR1 (adenosine deaminase acting on RNA), isoform not named in the results (protein, UniProt P55265 1-1226)
chain: MNPRQGYSLSGYYTHPFQGYEHRQLRYQQPGPGSSPSSFLLKQIEFLKGQLPEAPVIGKQTPSLPPSLPGLRPRFPVLLASSTRGRQVDIRGVPRGVHLRSQGLQRGFQHPSPRGRSLPQRGVDCLSSHFQELSIYQDQEQRILKFLEELGEGKATTAHDLSGKLGTPKKEINRVLYSLAKKGKLQKEAGTPPLWKIAVSTQAWNQHSGVVRPDGHSQGAPNSDPSLEPEDRNSTSVSEDLLEPFIAVSAQAWNQHSGVVRPDSHSQGSPNSDPGLEPEDSNSTSALEDPLEFLDMAEIKEKICDYLFNVSDSSALNLAKNIGLTKARDINAVLIDMERQGDVYRQGTTPPIWHLTDKKRERMQIKRNTNSVPETAPAAIPETKRNAEFLTCNIPTSNASNNMVTTEKVENGQEPVIKLENRQEARPEPARLKPPVHYNGPSKAGYVDFENGQWATDDIPDDLNSIRAAPGEFRAIMEMPSFYSHGLPRCSPYKKLTECQLKNPISGLLEYAQFASQTCEFNMIEQSGPPHEPRFKFQVVINGREFPPAEAGSKKVAKQDAAMKAMTILLEEAKAKDSGKSEESSHYSTEKESEKTAESQTPTPSATSFFSGKSPVTTLLECMHKLGNSCEFRLLSKEGPAHEPKFQYCVAVGAQTFPSVSAPSKKVAKQMAAEEAMKALHGEATNSMASDNQPEGMISESLDNLESMMPNKVRKIGELVRYLNTNPVGGLLEYARSHGFAAEFKLVDQSGPPHEPKFVYQAKVGGRWFPAVCAHSKKQGKQEAADAALRVLIGENEKAERMGFTEVTPVTGASLRRTMLLLSRSPEAQPKTLPLTGSTFHDQIAMLSHRCFNTLTNSFQPSLLGRKILAAIIMKKDSEDMGVVVSLGTGNRCVKGDSLSLKGETVNDCHAEIISRRGFIRFLYSELMKYNSQTAKDSIFEPAKGGEKLQIKKTVSFHLYISTAPCGDGALFDKSCSDRAMESTESRHYPVFENPKQGKLRTKVENGEGTIPVESSDIVPTWDGIRLGERLRTMSCSDKILRWNVLGLQGALLTHFLQPIYLKSVTLGYLFSQGHLTRAICCRVTRDGSAFEDGLRHPFIVNHPKVGRVSIYDSKRQSGKTKETSVNWCLADGYDLEILDGTRGTVDGPRNELSRVSKKNIFLLFKKLCSFRYRRDLLRLSYGEAKKAARDYETAKNYFKKGLKDMGYGNWISKPQEEKNFYLCPV

These are yes or no findings as the source states them, for the method shown. In cells and extracts the contact can be indirect. Binding calls can cover weak binding; strength is not graded here.
